From US7964567B2 (Seattle Genetics, Inc., priority 2003, dated 2011)

Assay: general procedure: solution-phase peptide synthesis; DEPC/DIEA; TBTU/DIEA
Settings: for final HPLC purity: HPLC (AUC)

MC-MeVal-Val-Dil-Dap-Phe-OH (MC-MMAF)
step yield (late stage modification step): 73%
final HPLC purity (late stage modification step): 92% purity by HPLC

MeVal-Val-Dil-Dap-Phe-OtBu
step yield (late stage modification step): 87%

Fmoc-Val-Cit-PAB-MMAF-OtBu
conjugation yield (conjugation step): 59%

Succinimide Ester of Suberyl-Val-Cit-PAB-MMAF
step yield (late stage modification step): 29%

MeVal-Val-Dil-Dap-Phe-ODMB
step yield (late stage modification step): 69%
final HPLC purity (late stage modification step): 96% purity by HPLC (AUC)

MC-MeVal-Val-Dil-Dap-Phe-ODMB
conjugation yield (conjugation step): 57%
final HPLC purity (conjugation step): 94% purity by HPLC(AUC)

Fmoc-Val-Cit-PAB-MMAF
step yield (late stage modification step): 40%

MC-MeVal-Cit-PAB-MMAF
conjugation yield (conjugation step): 0.45%

maleimidocaproyl-valine-citrulline-p-hydroxymethylaminobenzene-MMAF (MC-val-cit-PAB-MMAF)
step yield (late stage modification step): 25%

Fmoc-MeVal-Val-Dil-Dap-Phe-ODMB
step yield (coupling step): 73%
final HPLC purity (coupling step): 93% purity by HPLC (AUC)

MC-MeVal-Val-Dil-Dap-Phe-OtBu
conjugation yield (conjugation step): 60% yield

MC-Val-Cit-PAB-MMAF t-butyl Ester
conjugation yield (conjugation step): 71%

MB-MeVal-Val-Dil-Dap-Phe-OtBu
conjugation yield (conjugation step): 46% yield
